Paper PMC8500230

Protein sequences, listed by entry. Tags and fused reporters are not part of them. Lines headed by an entry give the natural chain unless they say otherwise; changes in a name come on top.
UniProt Q9FV71: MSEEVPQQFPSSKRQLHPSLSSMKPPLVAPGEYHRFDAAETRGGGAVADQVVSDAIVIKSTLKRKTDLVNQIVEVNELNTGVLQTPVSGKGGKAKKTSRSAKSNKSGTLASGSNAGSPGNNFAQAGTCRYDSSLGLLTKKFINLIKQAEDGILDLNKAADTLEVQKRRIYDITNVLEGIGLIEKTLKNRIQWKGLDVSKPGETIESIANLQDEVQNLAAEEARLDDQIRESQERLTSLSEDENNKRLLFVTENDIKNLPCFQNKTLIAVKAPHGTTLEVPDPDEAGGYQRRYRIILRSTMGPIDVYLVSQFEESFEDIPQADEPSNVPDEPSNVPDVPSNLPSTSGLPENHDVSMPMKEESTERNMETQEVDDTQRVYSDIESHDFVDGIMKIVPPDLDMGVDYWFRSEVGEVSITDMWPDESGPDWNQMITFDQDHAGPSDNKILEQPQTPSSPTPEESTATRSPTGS
UniProt F4J4R5: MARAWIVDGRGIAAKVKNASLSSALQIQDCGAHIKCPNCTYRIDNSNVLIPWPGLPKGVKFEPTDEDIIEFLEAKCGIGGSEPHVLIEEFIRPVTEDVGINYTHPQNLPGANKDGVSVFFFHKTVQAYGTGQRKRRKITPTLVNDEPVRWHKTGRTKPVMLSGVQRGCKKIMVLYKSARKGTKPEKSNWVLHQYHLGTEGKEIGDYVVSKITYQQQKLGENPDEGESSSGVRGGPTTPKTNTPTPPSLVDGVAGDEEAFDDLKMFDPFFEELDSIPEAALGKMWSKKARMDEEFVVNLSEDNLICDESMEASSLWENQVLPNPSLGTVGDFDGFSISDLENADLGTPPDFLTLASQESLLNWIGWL
UniProt F4JTM3: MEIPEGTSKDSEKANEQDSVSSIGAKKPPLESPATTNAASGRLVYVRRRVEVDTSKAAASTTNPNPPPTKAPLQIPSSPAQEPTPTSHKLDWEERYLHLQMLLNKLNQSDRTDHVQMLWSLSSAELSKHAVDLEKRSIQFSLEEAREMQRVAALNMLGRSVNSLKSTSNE
UniProt O22467: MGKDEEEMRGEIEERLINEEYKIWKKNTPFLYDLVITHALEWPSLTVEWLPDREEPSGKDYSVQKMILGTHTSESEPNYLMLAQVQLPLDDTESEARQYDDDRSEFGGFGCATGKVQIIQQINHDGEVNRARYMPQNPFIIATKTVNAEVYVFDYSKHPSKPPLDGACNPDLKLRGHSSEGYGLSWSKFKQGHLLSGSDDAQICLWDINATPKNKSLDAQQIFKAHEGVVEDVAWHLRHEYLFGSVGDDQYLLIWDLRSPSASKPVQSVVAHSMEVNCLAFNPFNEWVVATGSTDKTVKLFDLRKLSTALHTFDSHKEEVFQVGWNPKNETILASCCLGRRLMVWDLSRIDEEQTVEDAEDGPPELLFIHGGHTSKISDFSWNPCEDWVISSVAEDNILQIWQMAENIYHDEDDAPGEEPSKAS
UniProt F4IWE2: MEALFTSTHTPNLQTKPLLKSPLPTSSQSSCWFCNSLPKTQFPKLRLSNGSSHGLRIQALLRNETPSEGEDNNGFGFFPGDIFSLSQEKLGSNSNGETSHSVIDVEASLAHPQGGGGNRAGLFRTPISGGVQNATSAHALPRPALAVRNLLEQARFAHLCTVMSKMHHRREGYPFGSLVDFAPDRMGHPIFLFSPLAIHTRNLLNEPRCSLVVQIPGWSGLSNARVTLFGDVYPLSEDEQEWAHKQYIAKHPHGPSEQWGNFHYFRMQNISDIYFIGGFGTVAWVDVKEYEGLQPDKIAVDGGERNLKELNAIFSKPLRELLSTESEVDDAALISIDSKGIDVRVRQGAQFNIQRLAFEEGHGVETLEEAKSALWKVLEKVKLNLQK
UniProt Q8LSZ4: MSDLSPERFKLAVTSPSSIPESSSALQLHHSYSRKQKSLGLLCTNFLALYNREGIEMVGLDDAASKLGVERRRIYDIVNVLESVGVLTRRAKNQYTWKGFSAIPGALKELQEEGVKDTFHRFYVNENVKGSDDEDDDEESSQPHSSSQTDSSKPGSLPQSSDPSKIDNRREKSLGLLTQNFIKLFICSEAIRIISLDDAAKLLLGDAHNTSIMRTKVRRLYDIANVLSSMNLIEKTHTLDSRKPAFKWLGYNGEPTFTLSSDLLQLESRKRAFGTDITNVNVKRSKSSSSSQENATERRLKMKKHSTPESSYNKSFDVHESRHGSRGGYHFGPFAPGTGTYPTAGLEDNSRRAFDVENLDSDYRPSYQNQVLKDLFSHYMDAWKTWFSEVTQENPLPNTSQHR
UniProt P24100: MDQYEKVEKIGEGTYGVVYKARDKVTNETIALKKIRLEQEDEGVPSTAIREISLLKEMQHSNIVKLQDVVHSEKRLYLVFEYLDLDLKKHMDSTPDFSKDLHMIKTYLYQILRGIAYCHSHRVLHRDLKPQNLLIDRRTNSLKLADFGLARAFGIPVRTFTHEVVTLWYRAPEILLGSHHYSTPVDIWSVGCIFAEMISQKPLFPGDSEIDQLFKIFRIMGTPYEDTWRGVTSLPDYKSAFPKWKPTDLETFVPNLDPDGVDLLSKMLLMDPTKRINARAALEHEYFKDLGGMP

What was measured:
[1] = biological target: N-terminally tagged RBR1 (TAP bait) (Arabidopsis thaliana) (UniProt Q9LKZ3); assay: affinity purification with mass spectrometry; tandem affinity purification (GS^rhino tag) from Arabidopsis PSB-D cell suspension cultures expressing the tagged bait under the 35S promoter; 30 uM cisplatin added 16 h before harvest; 100 mg total protein extract; on-bead digest, LC-MS/MS; in …
[2] = biological target: T1, E2FC-GFP (Arabidopsis thaliana) (UniProt Q9FV70); assay: affinity purification with mass spectrometry; FP-IP: anti-GFP antibody on magnetic beads, total protein extracts (4 mg/IP) of Arabidopsis seedlings expressing the GFP- or CFP-tagged bait under its own promoter; GFP alone as control; standard conditions, various growth regimes (meta-analysis of 182 IPs), with or without 50 uM cisplatin for 24 h; label-free LC-MS/MS
T1 sequence: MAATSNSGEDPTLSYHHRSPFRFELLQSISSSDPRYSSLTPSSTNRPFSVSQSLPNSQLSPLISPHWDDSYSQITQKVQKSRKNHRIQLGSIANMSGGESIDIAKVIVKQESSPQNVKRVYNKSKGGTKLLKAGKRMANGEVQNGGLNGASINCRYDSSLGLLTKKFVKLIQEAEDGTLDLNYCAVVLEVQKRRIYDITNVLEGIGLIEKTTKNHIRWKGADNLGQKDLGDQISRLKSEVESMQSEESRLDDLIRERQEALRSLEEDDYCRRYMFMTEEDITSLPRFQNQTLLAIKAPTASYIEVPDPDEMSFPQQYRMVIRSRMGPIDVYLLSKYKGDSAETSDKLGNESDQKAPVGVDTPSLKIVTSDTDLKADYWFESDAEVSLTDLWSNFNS

[3] = biological target: T2, DPB-3xCFP (Arabidopsis thaliana) (UniProt Q9FNY2); assay: as above
T2 sequence: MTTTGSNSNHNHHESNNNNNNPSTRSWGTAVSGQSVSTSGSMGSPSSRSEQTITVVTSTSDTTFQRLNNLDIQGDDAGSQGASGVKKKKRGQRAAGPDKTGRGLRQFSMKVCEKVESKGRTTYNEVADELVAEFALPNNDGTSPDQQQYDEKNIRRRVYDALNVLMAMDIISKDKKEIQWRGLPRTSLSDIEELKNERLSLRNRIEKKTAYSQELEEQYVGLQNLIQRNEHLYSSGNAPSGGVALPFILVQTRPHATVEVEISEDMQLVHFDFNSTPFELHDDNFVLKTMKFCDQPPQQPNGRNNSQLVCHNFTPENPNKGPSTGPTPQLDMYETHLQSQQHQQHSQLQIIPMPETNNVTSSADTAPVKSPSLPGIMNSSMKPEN

[4] = biological target: T3, RBR1-GFP (Arabidopsis thaliana) (UniProt Q9LKZ3); assay: as above
T3 sequence: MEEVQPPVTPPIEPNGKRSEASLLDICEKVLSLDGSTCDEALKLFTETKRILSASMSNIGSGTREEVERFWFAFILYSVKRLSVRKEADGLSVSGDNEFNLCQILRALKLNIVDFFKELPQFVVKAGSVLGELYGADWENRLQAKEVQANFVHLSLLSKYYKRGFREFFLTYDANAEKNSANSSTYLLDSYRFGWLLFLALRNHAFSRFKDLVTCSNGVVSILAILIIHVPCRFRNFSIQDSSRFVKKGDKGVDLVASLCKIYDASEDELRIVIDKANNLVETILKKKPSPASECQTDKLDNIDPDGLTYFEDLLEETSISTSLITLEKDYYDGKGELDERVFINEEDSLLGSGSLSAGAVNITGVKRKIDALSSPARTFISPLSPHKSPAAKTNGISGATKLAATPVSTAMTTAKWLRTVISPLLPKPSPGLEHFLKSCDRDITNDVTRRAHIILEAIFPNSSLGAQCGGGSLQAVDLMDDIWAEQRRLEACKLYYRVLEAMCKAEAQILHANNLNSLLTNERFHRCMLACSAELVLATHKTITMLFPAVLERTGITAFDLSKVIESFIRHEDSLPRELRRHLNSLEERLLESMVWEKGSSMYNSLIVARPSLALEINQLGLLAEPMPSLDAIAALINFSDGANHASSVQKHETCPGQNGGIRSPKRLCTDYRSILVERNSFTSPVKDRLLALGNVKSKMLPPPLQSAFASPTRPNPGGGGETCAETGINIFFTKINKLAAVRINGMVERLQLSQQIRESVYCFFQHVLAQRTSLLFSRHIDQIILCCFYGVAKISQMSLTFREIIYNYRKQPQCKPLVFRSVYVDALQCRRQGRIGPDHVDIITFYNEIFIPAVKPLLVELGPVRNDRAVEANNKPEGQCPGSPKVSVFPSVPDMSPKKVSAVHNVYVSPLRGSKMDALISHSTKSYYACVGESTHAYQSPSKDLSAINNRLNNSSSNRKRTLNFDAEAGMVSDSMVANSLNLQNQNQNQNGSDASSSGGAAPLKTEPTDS

[5] = biological target: T4, DPA-GFP (Arabidopsis thaliana) (UniProt Q9FNY3); assay: as above
T4 sequence: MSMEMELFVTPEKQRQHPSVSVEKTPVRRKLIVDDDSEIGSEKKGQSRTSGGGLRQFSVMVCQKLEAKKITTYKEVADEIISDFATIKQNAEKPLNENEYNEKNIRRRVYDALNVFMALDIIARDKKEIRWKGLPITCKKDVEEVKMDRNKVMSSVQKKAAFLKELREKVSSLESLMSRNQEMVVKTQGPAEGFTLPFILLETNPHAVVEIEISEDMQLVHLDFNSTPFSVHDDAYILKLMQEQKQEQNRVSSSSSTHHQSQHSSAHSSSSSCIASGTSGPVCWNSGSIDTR

[6] = biological target: T5, N-terminally tagged TCX5 (TAP bait) (Arabidopsis thaliana) (UniProt Q9SZD1); assay: affinity purification with mass spectrometry; tandem affinity purification (GS^rhino tag) from Arabidopsis PSB-D cell suspension cultures expressing the tagged bait under the 35S promoter; 30 uM cisplatin added 16 h before harvest; 100 mg total protein extract; on-bead digest, LC-MS/MS; in …
T5 sequence: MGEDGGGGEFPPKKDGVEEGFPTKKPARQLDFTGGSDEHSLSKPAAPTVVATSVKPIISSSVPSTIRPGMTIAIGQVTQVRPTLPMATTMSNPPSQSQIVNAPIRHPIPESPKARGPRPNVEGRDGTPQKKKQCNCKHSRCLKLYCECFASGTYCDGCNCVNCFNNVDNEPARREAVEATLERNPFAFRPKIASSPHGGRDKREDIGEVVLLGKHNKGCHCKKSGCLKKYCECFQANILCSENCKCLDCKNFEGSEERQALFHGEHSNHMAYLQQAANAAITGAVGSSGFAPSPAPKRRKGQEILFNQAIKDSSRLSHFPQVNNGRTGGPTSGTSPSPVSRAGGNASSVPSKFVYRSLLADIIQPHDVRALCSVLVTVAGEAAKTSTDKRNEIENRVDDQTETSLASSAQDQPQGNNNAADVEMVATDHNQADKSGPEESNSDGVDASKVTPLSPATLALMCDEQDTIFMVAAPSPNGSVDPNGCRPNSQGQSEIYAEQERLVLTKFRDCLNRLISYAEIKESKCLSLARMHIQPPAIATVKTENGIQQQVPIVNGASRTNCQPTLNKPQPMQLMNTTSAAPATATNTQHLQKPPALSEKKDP

[7] = biological target: T6, C-terminally tagged TCX5 (TAP bait) (Arabidopsis thaliana) (UniProt Q9SZD1); assay: as above
T6 sequence: T5 sequence

[8] = biological target: T7, tagged TCX5 (TAP bait, tag end not told for this result) (Arabidopsis thaliana) (UniProt Q9SZD1); assay: as above
T7 sequence: T5 sequence

[9] = biological target: E2FB-GFP (Arabidopsis thaliana) (UniProt Q9FV71); assay: affinity purification with mass spectrometry; FP-IP: anti-GFP antibody on magnetic beads, total protein extracts (4 mg/IP) of Arabidopsis seedlings expressing the GFP- or CFP-tagged bait under its own promoter; GFP alone as control; standard conditions, various growth regimes (meta-analysis of 182 IPs), with or without 50 uM cisplatin for 24 h; label-free LC-MS/MS

Substance	binding [1]	binding [2]	binding [3]	binding [4]	binding [5]	binding [6]	binding [7]	binding [8]	binding [9]
NAC044 (from UniProt F4J4R5)	binds	–	–	–	–	–	–	–	–
LIN37A	–	binds	binds	binds	–	binds	binds	–	–
LIN52B (from UniProt F4JTM3)	no binding	–	–	–	–	binds	–	–	–
MSI1 (from UniProt O22467 1-424)	binds	binds	binds	binds	binds	binds	binds	–	binds
LIN37B	–	binds	binds	–	–	binds	binds	–	–

Other lines, results leading:

binding [1]	binding [2]	binding [3]	binding [4]	binding [5]	binding [6]	binding [7]	binding [8]	binding [9]	Substance
–	binds	binds	binds	binds	binds	binds	–	–	LIN52A/DRC1
–	–	–	–	–	–	–	binds	–	ONEIRIC 1 (ONE1) (from UniProt F4IWE2)
no binding	–	–	–	–	binds	binds	–	–	E2FE/DEL1 (from UniProt Q8LSZ4 1-403)
–	–	–	–	–	no binding	no binding	–	–	CDKA;1 (from UniProt P24100 1-294)

These are yes or no findings as the source states them, for the method shown. Binding seen in cells or lysates may run through a third protein. These calls come from enrichment with a bait or labelling near it, and not all partners need be listed. For some assays here: A no says only that the protein was not detected with the bait. For some assays here: Where a sequence is shown, tags or fusion partners need not be part of it.
